For some assays here: Expression grades refer to the transcript from which the peptide derives; gene names, where given, were looked up from the sequence.
Key:
[1] = tested on: source genes (mRNA); test: Expression profiling of source genes by in-house RNASeq of tumor and normal tissues (Table 18, FIG. 2); set-up: species or system human; key: very highly over-expressed in tumors compared to a panel of normal tissues (+++); highly over-expressed in tumors compared to a panel of normal tissues (++); over-expressed in tumors compared to a panel of normal tissues (+); settings: source gene of peptide; for Expression score OSCAR: esophageal cancer incl. gastric-esophageal junction (N = 11) vs panel of normal tissues; for Expression score GBC_CCC: gallbladder adenocarcinoma and cholangiocarcinoma (N = 3) vs panel of normal tissues; for Expression score GB: glioblastoma (N = 24) vs panel of normal tissues; for Expression score NSCLC: non-small cell lung cancer (N = 11) vs panel of normal tissues; for Expression score UBC: urinary bladder cancer (N = 10) vs panel of normal tissues; for Expression score UEC: uterine cancer (N = 10) vs panel of normal tissues
[2] = tested on: source genes (mRNA); test: Gene and exon expression of source genes, TCGA tumor samples compared with normal tissue samples (Lonsdale, 2013) (Table 17); set-up: species or system human; settings: for Target coverage: over-expression category of source gene, LAML: Acute Myeloid Leukemia (N = 173); for Target coverage: over-expression category of source gene, BLCA: Bladder urothelial carcinoma (N = 408); for Target coverage: over-expression category of source gene, BRCA: Breast cancer (N = 1104), cutoff more than 2-fold above highest 75% percentile of high and medium risk normal tissue samples; for Target coverage: over-expression category of source gene, CHOL: Cholangiocarcinoma (N = 36); for Target coverage: over-expression category of source gene, COAD: Colon and rectal adenocarcinoma (N = 462); for Target coverage: over-expression category of source gene, ESCA: Esophageal cancer (N = 185); for Target coverage: over-expression category of source gene, GBM: Glioblastoma multiforme (N = 169); for Target coverage: over-expression category of source gene, LUSC: Lung squamous cell carcinoma (N = 503); for Target coverage: over-expression category of source gene, DLBC: Lymphoid neoplasm diffuse large B-cell lymphoma (N = 48); for Target coverage: over-expression category of source gene, OV: Ovarian serous cystadenocarcinoma (N = 309); for Target coverage: over-expression category of source gene, PRAD: Prostate adenocarcinoma (N = 498); for Target coverage: over-expression category of source gene, SKCM: Skin cutaneous melanoma (N = 473); for Target coverage: over-expression category of source gene, STAD: Stomach adenocarcinoma (N = 415); for Target coverage: over-expression category of source gene, UCEC: Uterine corpus endometrial carcinoma (N = 546); for Target coverage: over-expression category of source gene, KIRC: Clear cell kidney carcinoma (N = 534); for Target coverage: over-expression category of source gene, LUAD: Lung adenocarcinoma (N = 517); for Target coverage: over-expression category of source gene, KIRP: Papillary kidney carcinoma (N = 291)
[3] = tested on: HLA-A*02; test: Identification and relative LC-MS quantitation of HLA-A*02-presented tumor-associated peptides on tissue samples (presentation profiles, Tables 13A, 13B, 15, FIG. 1); set-up: species or system human; key to Presentation score NHL / Presentation score CLL / Presentation score BRCA / Presentation score AML / Presentation score GB / Presentation score NSCLC / Presentation score GBC_CCC / Presentation score UEC / Presentation score MEL / Presentation score OSCAR / Presentation score GC / Presentation score UBC / Presentation score OC / Presentation score RCC / Presentation score CRC / Presentation score PCA / Presentation score HCC / Presentation score PC / Presentation score SCLC: specifically presented on tumors (++++); very highly over-presented on tumors compared to a panel of normal tissues (+++); highly over-presented on tumors compared to a panel of normal tissues (++); over-presented on tumors compared to a panel of normal tissues (+); settings: for Presentation score CLL: chronic lymphocytic leukemia (N = 17) vs panel of normal tissues (N = 262); for Peptide Presentation on cancer entities: HLA-A*02-binding tumor-associated peptides; for Presentation score OSCAR: esophageal cancer, including cancer of the gastric-esophageal junction (N = 17) vs panel of normal tissues (N = 262); for Presentation score NSCLC: non-small cell lung cancer (N = 90) vs panel of normal tissues (N = 262)
[4] = cutoff more than 2-fold above highest 75% percentile of normal tissue samples
[5] = Table 13A, cancer entities on which the peptide was found presented
[6] = Table 13B, presentation on additional cancer entities

Row | Substance | Expression score OSCAR [1] | Target coverage: over-expression category of source gene, LAML [2, 4] | Target coverage: over-expression category of source gene, BLCA [2, 4] | Target coverage: over-expression category of source gene, BRCA [2] | Target coverage: over-expression category of source gene, CHOL [2, 4] | Target coverage: over-expression category of source gene, COAD [2, 4] | Target coverage: over-expression category of source gene, ESCA [2, 4] | Target coverage: over-expression category of source gene, GBM [2, 4] | Target coverage: over-expression category of source gene, LUSC [2, 4] | Target coverage: over-expression category of source gene, DLBC [2, 4] | Target coverage: over-expression category of source gene, OV [2, 4] | Target coverage: over-expression category of source gene, PRAD [2, 4] | Target coverage: over-expression category of source gene, SKCM [2, 4] | Target coverage: over-expression category of source gene, STAD [2, 4] | Target coverage: over-expression category of source gene, UCEC [2, 4] | Presentation score CLL ([3]; HLA-A*02 peptides) | Peptide Presentation on cancer entities [3, 5] | Expression score GBC_CCC [1] | Expression score GB [1] | Target coverage: over-expression category of source gene, KIRC [2, 4] | also measured
1 | 121: peptide found in GRWD1 (gene looked up) (FTIFRTISV; listed as Homo sapiens) [compound 121] | + | C (>=5% of tumors above the cutoff, but <20%) | B (>= 20% of tumors above the cutoff, but <50%) | C (>=5% of tumors above the cutoff, but <20%) | C (>=5% of tumors above the cutoff, but <20%) | B (>= 20% of tumors above the cutoff, but <50%) | B (>= 20% of tumors above the cutoff, but <50%) | C (>=5% of tumors above the cutoff, but <20%) | C (>=5% of tumors above the cutoff, but <20%) | A (>=50% of tumors above the cutoff) | B (>= 20% of tumors above the cutoff, but <50%) | C (>=5% of tumors above the cutoff, but <20%) | B (>= 20% of tumors above the cutoff, but <50%) | B (>= 20% of tumors above the cutoff, but <50%) | B (>= 20% of tumors above the cutoff, but <50%) | ++++ | CLL |  |  |  | Target coverage: over-expression category of source gene, READ ([2]; Colon and rectal adenocarcinoma (N = 167), cutoff more than 2-fold above highest 75% percentile of normal tissue samples): B (>= 20% of tumors above the cutoff, but <50%); Target coverage: over-expression category of source gene, LIHC ([2]; Liver hepatocellular carcinoma (N = 374), cutoff more than 2-fold above highest 75% percentile of normal tissue samples): C (>=5% of tumors above the cutoff, but <20%)
2 | 63: peptide found in PRRC2C (gene looked up) (SQIPAQPSV; listed as Homo sapiens) [compound 63] | + | A (>=50% of tumors above the cutoff) | C (>=5% of tumors above the cutoff, but <20%) | B (>= 20% of tumors above the cutoff, but <50%) |  |  | A (>=50% of tumors above the cutoff) |  | C (>=5% of tumors above the cutoff, but <20%) |  | A (>=50% of tumors above the cutoff) |  | C (>=5% of tumors above the cutoff, but <20%) | A (>=50% of tumors above the cutoff) | C (>=5% of tumors above the cutoff, but <20%) |  | GC, NSCLC, OSCAR | + | + | C (>=5% of tumors above the cutoff, but <20%) | Expression score BRCA ([1]; BRCA tumors vs panel of normal tissues): +; Expression score CLL ([1]; chronic lymphocytic leukemia (N = 10) vs panel of normal tissues): +; Expression score NSCLC [1]: +; Expression score OC ([1]; ovarian cancer (N = 12) vs panel of normal tissues): +; Expression score RCC ([1]; renal cell carcinoma (N = 10) vs panel of normal tissues): +; Expression score SCLC ([1]; small cell lung cancer (N = 10) vs panel of normal tissues): +; Expression score UBC [1]: +; Expression score UEC [1]: +; Target coverage: over-expression category of source gene, LUAD [2, 4]: B (>= 20% of tumors above the cutoff, but <50%); Target coverage: over-expression category of source gene, KIRP [2, 4]: C (>=5% of tumors above the cutoff, but <20%); Presentation score OSCAR ([3]; HLA-A*02 peptides): ++++; Presentation score GC ([3]; HLA-A*02 peptides, gastric cancer (N = 29) vs panel of normal tissues (N = 262)): ++++; Presentation score NSCLC ([3]; HLA-A*02 peptides): ++++; Peptide Presentation on cancer entities [3, 6]: AML, HNSCC
3 | 23: peptide found in ADAM10 (gene looked up) (SLFSDEFKV; listed as Homo sapiens) [compound 23] |  | A (>=50% of tumors above the cutoff) | B (>= 20% of tumors above the cutoff, but <50%) | B (>= 20% of tumors above the cutoff, but <50%) | B (>= 20% of tumors above the cutoff, but <50%) | C (>=5% of tumors above the cutoff, but <20%) | A (>=50% of tumors above the cutoff) |  | C (>=5% of tumors above the cutoff, but <20%) |  | C (>=5% of tumors above the cutoff, but <20%) | B (>= 20% of tumors above the cutoff, but <50%) | B (>= 20% of tumors above the cutoff, but <50%) | A (>=50% of tumors above the cutoff) |  |  |  | + |  | B (>= 20% of tumors above the cutoff, but <50%) | Expression score NSCLC [1]: +; Expression score PC ([1]; pancreatic cancer (N = 26) vs panel of normal tissues): +; Expression score PCA ([1]; prostate cancer and benign prostate hyperplasia (N = 5) vs panel of normal tissues): +; Expression score UBC [1]: +++; Expression score UEC [1]: +; Target coverage: over-expression category of source gene, KICH ([2]; Kidney chromophobe (N = 66), cutoff more than 2-fold above highest 75% percentile of normal tissue samples): C (>=5% of tumors above the cutoff, but <20%); Target coverage: over-expression category of source gene, LUAD [2, 4]: C (>=5% of tumors above the cutoff, but <20%); Target coverage: over-expression category of source gene, PAAD ([2]; Pancreatic ductal adenocarcinoma (N = 179), cutoff more than 2-fold above highest 75% percentile of normal tissue samples): C (>=5% of tumors above the cutoff, but <20%); Target coverage: over-expression category of source gene, KIRP [2, 4]: B (>= 20% of tumors above the cutoff, but <50%); Presentation score AML ([3]; HLA-A*02 peptides, acute myeloid leukemia (N = 18) vs panel of normal tissues (N = 262)): ++; Presentation score CRC ([3]; HLA-A*02 peptides, colorectal cancer (N = 28) vs panel of normal tissues (N = 262)): ++; Presentation score OSCAR ([3]; HLA-A*02 peptides): +; Presentation score NSCLC ([3]; HLA-A*02 peptides): +; Presentation score RCC ([3]; HLA-A*02 peptides, renal cell carcinoma (N = 20) vs panel of normal tissues (N = 262)): +; Presentation score UBC ([3]; HLA-A*02 peptides, urinary bladder cancer (N = 16) vs panel of normal tissues (N = 262)): +++; Peptide Presentation on cancer entities [3, 6]: MEL
4 | 71: peptide found in PLD4 (gene looked up) (VLHSKFWVV; listed as Homo sapiens) [compound 71] |  | A (>=50% of tumors above the cutoff) |  |  |  |  |  | B (>= 20% of tumors above the cutoff, but <50%) |  | C (>=5% of tumors above the cutoff, but <20%) |  |  |  |  |  | ++++ | CLL, NHL |  | + | C (>=5% of tumors above the cutoff, but <20%) | Expression score AML ([1]; acute myeloid leukemia (N = 11) vs panel of normal tissues): +; Target coverage: over-expression category of source gene, LGG ([2]; Lower grade glioma (N = 534), cutoff more than 2-fold above highest 75% percentile of normal tissue samples): B (>= 20% of tumors above the cutoff, but <50%); Presentation score NHL ([3]; HLA-A*02 peptides, non-Hodgkin lymphoma (N = 18) vs panel of normal tissues (N = 262)): ++++
